Laboratory results reported in the supplement of paper PMC8612539.
In brackets after ≈: the same amount, converted by molar mass. The source gives many values for each of these; only a part stands here.

System: Escherichia coli
Experiment: minimum inhibitory concentration (MIC)
Procedure: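 Broth microdilution MIC (Sensititre BOPO7F bovine plate, CLSI methods) of 19 antimicrobials against field isolates of P. multocida, M. haemolytica, H. somni (deep nasopharyngeal swabs) and E. coli, Enterococcus spp. (rectal swabs) from weaned dairy heifers. Incubation 16-24 h at 35 C. MIC is the lowest concentration preventing visible growth. Values with <= or > lie at the tested range limits. Trimethoprim-sulfamethoxazole is given as the trimethoprim component of a 1:19 mixture.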

CNC(C)C1CCC(N)C(OC2C(N)CC(N)C(OC3OCC(C)(O)C(NC)C3O)C2O)O1 (stereo unspecified) [Gentamicin]
Conditions	minimum inhibitory concentration [µg/mL]
isolate (source animal id): 1	≤ 1
isolate (source animal id): 2	≤ 1
isolate (source animal id): 3	≤ 1
isolate (source animal id): 4	≤ 1
isolate (source animal id): 5	≤ 1
isolate (source animal id): 6	≤ 1
isolate (source animal id): 7	≤ 1
isolate (source animal id): 17	≤ 1
isolate (source animal id): 18	≤ 1
isolate (source animal id): 19	≤ 1
isolate (source animal id): 20	≤ 1
isolate (source animal id): 21	≤ 1
isolate (source animal id): 22	≤ 1
isolate (source animal id): 23	≤ 1
isolate (source animal id): 24	≤ 1
isolate (source animal id): 25	≤ 1
isolate (source animal id): 26	≤ 1
isolate (source animal id): 27	8 (≈ 16.8 µM)
isolate (source animal id): 28	≤ 1
isolate (source animal id): 29	8 (≈ 16.8 µM)
isolate (source animal id): 30	≤ 1
isolate (source animal id): 31	≤ 1
isolate (source animal id): 32	≤ 1
isolate (source animal id): 33	≤ 1
isolate (source animal id): 34	≤ 1
isolate (source animal id): 35	≤ 1
isolate (source animal id): 36	≤ 1
isolate (source animal id): 37	≤ 1
isolate (source animal id): 38	≤ 1
isolate (source animal id): 39	≤ 1
isolate (source animal id): 40	≤ 1
isolate (source animal id): 41	≤ 1
isolate (source animal id): 42	≤ 1
isolate (source animal id): 43	≤ 1
isolate (source animal id): 44	≤ 1
isolate (source animal id): 45	≤ 1
isolate (source animal id): 46	≤ 1
isolate (source animal id): 47	≤ 1
isolate (source animal id): 48	≤ 1
isolate (source animal id): 49	≤ 1
isolate (source animal id): 50	≤ 1
isolate (source animal id): 51	≤ 1
isolate (source animal id): 52	≤ 1
isolate (source animal id): 53	≤ 1
isolate (source animal id): 54	≤ 1
isolate (source animal id): 55	≤ 1
isolate (source animal id): 56	≤ 1
isolate (source animal id): 57	> 16
isolate (source animal id): 58	≤ 1
isolate (source animal id): 59	≤ 1
isolate (source animal id): 60	≤ 1
isolate (source animal id): 61	≤ 1
isolate (source animal id): 62	≤ 1
isolate (source animal id): 63	≤ 1
isolate (source animal id): 64	≤ 1
isolate (source animal id): 65	≤ 1
isolate (source animal id): 66	2 (≈ 4.19 µM)
isolate (source animal id): 67	≤ 1
isolate (source animal id): 68	≤ 1
isolate (source animal id): 69	≤ 1
isolate (source animal id): 70	≤ 1
isolate (source animal id): 71	2 (≈ 4.19 µM)
isolate (source animal id): 72	≤ 1
isolate (source animal id): 73	≤ 1
isolate (source animal id): 74	≤ 1
isolate (source animal id): 75	≤ 1
isolate (source animal id): 76	≤ 1
isolate (source animal id): 77	≤ 1
isolate (source animal id): 78	≤ 1
isolate (source animal id): 79	≤ 1
isolate (source animal id): 80	≤ 1
isolate (source animal id): 81	≤ 1
isolate (source animal id): 82	≤ 1
isolate (source animal id): 83	≤ 1
isolate (source animal id): 84	≤ 1
isolate (source animal id): 85	≤ 1
isolate (source animal id): 86	≤ 1
isolate (source animal id): 87	≤ 1
isolate (source animal id): 88	≤ 1
isolate (source animal id): 89	≤ 1
isolate (source animal id): 90	≤ 1
isolate (source animal id): 91	≤ 1
isolate (source animal id): 92	≤ 1
isolate (source animal id): 93	≤ 1
isolate (source animal id): 94	2 (≈ 4.19 µM)
isolate (source animal id): 95	2 (≈ 4.19 µM)
isolate (source animal id): 96	≤ 1
isolate (source animal id): 97	≤ 1
isolate (source animal id): 189	≤ 1
isolate (source animal id): 190	≤ 1
isolate (source animal id): 191	≤ 1
isolate (source animal id): 192	≤ 1
isolate (source animal id): 193	≤ 1
isolate (source animal id): 194	≤ 1
isolate (source animal id): 195	≤ 1
isolate (source animal id): 196	≤ 1
isolate (source animal id): 197	≤ 1
isolate (source animal id): 198	≤ 1
isolate (source animal id): 199	≤ 1
isolate (source animal id): 200	≤ 1
isolate (source animal id): 201	≤ 1
isolate (source animal id): 202	≤ 1
isolate (source animal id): 203	≤ 1
isolate (source animal id): 204	≤ 1
isolate (source animal id): 205	≤ 1
isolate (source animal id): 206	≤ 1
isolate (source animal id): 207	≤ 1
isolate (source animal id): 208	≤ 1
isolate (source animal id): 209	≤ 1
isolate (source animal id): 210	≤ 1
isolate (source animal id): 211	≤ 1
isolate (source animal id): 212	≤ 1
isolate (source animal id): 213	2 (≈ 4.19 µM)
isolate (source animal id): 214	≤ 1
isolate (source animal id): 215	≤ 1
isolate (source animal id): 216	≤ 1
isolate (source animal id): 217	≤ 1
isolate (source animal id): 218	≤ 1
isolate (source animal id): 219	≤ 1
isolate (source animal id): 220	≤ 1
isolate (source animal id): 221	≤ 1
isolate (source animal id): 222	≤ 1
isolate (source animal id): 223	2 (≈ 4.19 µM)
isolate (source animal id): 224	≤ 1
isolate (source animal id): 225	≤ 1
isolate (source animal id): 226	≤ 1
isolate (source animal id): 227	≤ 1
isolate (source animal id): 228	≤ 1
isolate (source animal id): 229	≤ 1
isolate (source animal id): 230	≤ 1
isolate (source animal id): 231	≤ 1
isolate (source animal id): 232	≤ 1
isolate (source animal id): 233	≤ 1
isolate (source animal id): 234	≤ 1
isolate (source animal id): 235	≤ 1
isolate (source animal id): 236	≤ 1
isolate (source animal id): 237	≤ 1
isolate (source animal id): 238	≤ 1
isolate (source animal id): 239	≤ 1
isolate (source animal id): 240	≤ 1
isolate (source animal id): 241	≤ 1
isolate (source animal id): 242	2 (≈ 4.19 µM)
isolate (source animal id): 243	2 (≈ 4.19 µM)
isolate (source animal id): 244	≤ 1
isolate (source animal id): 245	≤ 1
isolate (source animal id): 246	≤ 1
isolate (source animal id): 247	≤ 1
isolate (source animal id): 248	≤ 1
isolate (source animal id): 249	≤ 1
isolate (source animal id): 250	≤ 1
isolate (source animal id): 251	≤ 1
isolate (source animal id): 252	≤ 1
isolate (source animal id): 253	≤ 1
isolate (source animal id): 254	≤ 1
isolate (source animal id): 255	≤ 1
isolate (source animal id): 256	≤ 1
isolate (source animal id): 257	≤ 1
isolate (source animal id): 258	≤ 1
isolate (source animal id): 259	≤ 1
isolate (source animal id): 260	≤ 1
isolate (source animal id): 261	≤ 1
isolate (source animal id): 262	≤ 1
isolate (source animal id): 263	≤ 1
isolate (source animal id): 264	≤ 1
isolate (source animal id): 265	≤ 1
isolate (source animal id): 266	≤ 1
isolate (source animal id): 267	≤ 1
isolate (source animal id): 268	≤ 1
isolate (source animal id): 269	2 (≈ 4.19 µM)
isolate (source animal id): 270	≤ 1
isolate (source animal id): 271	≤ 1
isolate (source animal id): 272	≤ 1
isolate (source animal id): 273	≤ 1
isolate (source animal id): 274	≤ 1
isolate (source animal id): 275	≤ 1
isolate (source animal id): 276	≤ 1
isolate (source animal id): 277	≤ 1
isolate (source animal id): 278	≤ 1
isolate (source animal id): 279	≤ 1
isolate (source animal id): 280	≤ 1
isolate (source animal id): 281	2 (≈ 4.19 µM)
isolate (source animal id): 282	≤ 1
isolate (source animal id): 283	≤ 1
isolate (source animal id): 284	≤ 1
isolate (source animal id): 285	≤ 1
isolate (source animal id): 286	≤ 1
isolate (source animal id): 287	4 (≈ 8.38 µM)
isolate (source animal id): 288	≤ 1
isolate (source animal id): 289	≤ 1
isolate (source animal id): 290	≤ 1
isolate (source animal id): 291	8 (≈ 16.8 µM)
isolate (source animal id): 292	≤ 1
isolate (source animal id): 293	≤ 1
isolate (source animal id): 294	≤ 1
isolate (source animal id): 295	8 (≈ 16.8 µM)
isolate (source animal id): 296	≤ 1
isolate (source animal id): 297	≤ 1
isolate (source animal id): 298	≤ 1
isolate (source animal id): 299	≤ 1
isolate (source animal id): 300	≤ 1
isolate (source animal id): 301	≤ 1
isolate (source animal id): 302	≤ 1
isolate (source animal id): 303	≤ 1
isolate (source animal id): 304	≤ 1
isolate (source animal id): 305	≤ 1
isolate (source animal id): 306	≤ 1
isolate (source animal id): 307	≤ 1
isolate (source animal id): 308	≤ 1
isolate (source animal id): 309	≤ 1
isolate (source animal id): 310	≤ 1
isolate (source animal id): 311	≤ 1
isolate (source animal id): 312	≤ 1
isolate (source animal id): 313	≤ 1
isolate (source animal id): 314	≤ 1
isolate (source animal id): 315	≤ 1
isolate (source animal id): 316	≤ 1
isolate (source animal id): 317	2 (≈ 4.19 µM)
isolate (source animal id): 318	≤ 1
isolate (source animal id): 319	≤ 1
isolate (source animal id): 320	≤ 1
isolate (source animal id): 321	≤ 1
isolate (source animal id): 322	≤ 1
isolate (source animal id): 323	≤ 1
isolate (source animal id): 324	≤ 1
isolate (source animal id): 325	≤ 1
isolate (source animal id): 326	≤ 1
isolate (source animal id): 327	≤ 1
isolate (source animal id): 328	≤ 1
isolate (source animal id): 329	≤ 1
isolate (source animal id): 330	≤ 1
isolate (source animal id): 331	≤ 1
isolate (source animal id): 332	≤ 1
isolate (source animal id): 333	≤ 1
isolate (source animal id): 334	≤ 1
isolate (source animal id): 335	≤ 1
isolate (source animal id): 336	≤ 1
isolate (source animal id): 337	≤ 1
isolate (source animal id): 338	≤ 1
isolate (source animal id): 339	≤ 1
isolate (source animal id): 340	2 (≈ 4.19 µM)
isolate (source animal id): 341	≤ 1
